“And” between values parts separate entries of the source, which are not always exact repeats. Identical values can stand only once. This continues a long series; more values of the same kind are listed elsewhere.
Biological target: T1, HiBiT-SOCS2 fusion in HeLa cells (Homo sapiens, UniProt O14508)
T1 construct: encoding SOCS2 (32–198) in pBiT3.1-N expression vector; expressed in transfected cells; host or cells: HeLa
Test: Split-NanoLuc CETSA, live-cell mode
Format: cell-based
Design: reference not given here
Conditions: 50uM 20hrs
Procedure: One of the challenges with small-molecule binders displaying on-target activity with recombinant proteins, is to translate their utility to a cellular context. […] One of the advantages of CETSA is that target engagement can be monitored without the need for the development of a cell-permeable tracer molecule.
We utilized CETSA in a live-cell mode to evaluate the efficacy and rank the different prodrugs. We treated live HeLa cells with 50 μM compound (prodrugs) for 20 h and monitored Tagg shift as a proxy for the combo of prodrug permeability and unmasking (Fig. 4d). […] The observation could be because the POM group unmasking requires only esterase unlike the reliance of compounds 21–23 on esterase and phosphoramidase for unmasking an aryloxy phosphoramidate group.
N-terminal HiBiT-SOCS2 fusion was generated by encoding SOCS2 (32–198) in pBiT3.1-N expression vector (Promega). The transfection and target engagement assay were performed by modifying a NanoLuc target engagement protocol (Promega) with some small modifications. Briefly, HiBiT-SOCS2 fusion construct was transfected into HeLa cells using FuGENE HD (Promega) according to the manufacturer’s protocol. HiBiT-SOCS2 fusion construct was diluted into Transfection Carrier DNA (Promega) at a mass ratio of 1:100 or 1:10 for permeabilised and live-cell CETSA respectively. FuGENE HD was added at a ratio of 1:3 (μg DNA: μL FuGENE HD). 1 part (vol) of FuGENE HD complexes thus formed were combined with 20 parts (vol) of HeLa cells suspended at a density of 2 × 10^5 cells/mL, followed by incubation in a humidified, 37 °C + 5% CO2 incubator. After 20 h of incubation HeLa cells were detached and resuspended at a density of 2.5 × 10^5 cells/mL in Opti-MEM media without serum or phenol red but supplemented with protease inhibitor cocktail (Roche). Compounds stocks were added to cell suspension to maintain a final DMSO concentration of 1%. For the permeabilised assay format, 96-well PCR plates (Thermo) were pre-treated with digitonin to have a final well concentration of 50 μg/ml. 50 μl Opti-MEM cell suspension was then aliquoted to each well of the 96-well plate. The plates are then covered with microporous tape sheet (Qiagen) prior to incubation in a humidified, 37 °C + 5% CO2 incubator. Post-incubation we heat the PCR plates in 16-point temperature (split across two runs) curve spanning degrees 40-72 °C temperature span (CFX96 Touch Real-Time PCR Detection System, BioRad). The thermal cycler block was allowed to rise to the designated temperatures prior to placement of the PCR plates into the heating block and heat treatment for 3 min. After incubating the plates at room temperature for over 3 min, 50 μl of the Nano-Glo HiBiT Lytic mix (Promega) was added to each well. Samples were mixed by pipetting and placing the plate on an orbital shaker (600 rpm) for 5 min. 20 μl of the samples (in triplicates) were transferred to a AlphaPlate-384 plate (Perkin Elmer). Luminescence was recorded with GloMax Discover Microplate Reader (Promega). To generate apparent Tagg curves, the data is first converted to percent stabilized by relating the observed luminescence to the luminescence of the lowest temperature (40 °C) for that given sample. Data are then fitted to obtain apparent Tagg values using the Boltzmann Sigmoid equation using Graphpad Prism 9.

Amino acid sequences for entries named in this document (tags omitted). Residues count along the entry.
UniProt O14508, 32-198: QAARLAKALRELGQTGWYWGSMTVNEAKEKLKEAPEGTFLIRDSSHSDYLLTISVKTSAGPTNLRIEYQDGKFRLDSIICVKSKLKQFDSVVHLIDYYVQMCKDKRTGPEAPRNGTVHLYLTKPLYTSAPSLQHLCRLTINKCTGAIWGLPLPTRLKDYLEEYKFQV

[1] = n=1, temperature point 3 of 16, temperature not given
[2] = n=1, temperature point 1 of 16, temperature not given

Row | SMILES | Produrg CETSA screening, raw signal [1] | Produrg CETSA screening, raw signal (n=3, Temp, 0C 40) | Produrg CETSA screening, raw signal (n=3, Temp, 0C 40.9) | Produrg CETSA screening, raw signal (n=3, Temp, 0C 42.9) | Produrg CETSA screening, raw signal (n=3, Temp, 0C 45.8) | Produrg CETSA screening, raw signal (n=3, Temp, 0C 49.5) | Produrg CETSA screening, raw signal (n=3, Temp, 0C 52.4) | Produrg CETSA screening, raw signal (n=3, Temp, 0C 54.1) | Produrg CETSA screening, raw signal (n=3, Temp, 0C 55) | Produrg CETSA screening, raw signal (n=3, Temp, 0C 56) | Produrg CETSA screening, raw signal (n=3, Temp, 0C 57.1) | Produrg CETSA screening, raw signal (n=3, Temp, 0C 59.2) | Produrg CETSA screening, raw signal (n=3, Temp, 0C 62.3) | Produrg CETSA screening, raw signal [2]
1 | COC(=O)[C@H](C)NP(=O)(Oc1ccc(C[C@H](NC(=O)Cc2ccc(F)cc2)C(=O)NCc2cccc(NC(=O)CCl)c2)cc1)Oc1cccc2ccccc12 (stereo partly drawn) [Compound 21] | 113448 and 102913 and 181659 | 106265 and 112198 and 119294 | 109899 and 115055 and 121931 | 83334 and 80184 and 93040 | 77608 and 87638 and 92665 | 73082 and 84063 and 89829 | 57034 and 65098 and 70354 | 44561 and 51273 and 64464 | 39974 and 47326 and 53401 | 39696 and 43402 and 52325 | 32038 and 42241 and 42528 | 21321 and 29927 and 36357 | 21596 and 23870 | 
2 | C[C@H](NP(=O)(Oc1ccc(C[C@H](NC(=O)Cc2ccc(F)cc2)C(=O)NCc2cccc(NC(=O)CCl)c2)cc1)Oc1cccc2ccccc12)C(=O)OCc1ccccc1 (stereo partly drawn) [Compound 23] | 75665 and 76023 and 87987 | 86109 and 99917 and 106945 | 90562 and 92623 and 105820 | 78371 and 90666 and 96745 | 73987 and 84265 and 91160 | 110287 and 116224 and 134122 | 83129 and 87051 and 111961 | 50256 and 61162 |  |  |  |  |  | 96179 and 66691 and 106678
3 | CC(C)(C)C(=O)OCOP(=O)(OCOC(=O)C(C)(C)C)Oc1ccc(C[C@H](NC(=O)Cc2ccc(F)cc2)C(=O)NCc2cccc(NC(=O)CCl)c2)cc1 [MN714] | 84153 and 150620 and 140451 | 98813 and 108173 and 115696 | 99191 and 104307 and 114654 | 98886 and 104736 and 111342 | 90351 and 101251 and 104167 | 95789 and 104273 and 111701 | 78114 and 87832 and 90131 | 62485 and 66465 and 74792 | 57897 and 63846 and 70409 | 65003 and 70712 and 71358 | 50965 and 55773 and 64572 | 33517 and 39387 and 42632 | 20563 and 19784 | 67270 and 84567 and 117559
